# Measured values taken from US20240000838A1 (SIMCERE INNOVATION, published 2024).
# Protein sequences, listed by entry. Tags and fused reporters are not part of them. Residues count along the entry.
# UniProt P20138, 18-259 limits assumed: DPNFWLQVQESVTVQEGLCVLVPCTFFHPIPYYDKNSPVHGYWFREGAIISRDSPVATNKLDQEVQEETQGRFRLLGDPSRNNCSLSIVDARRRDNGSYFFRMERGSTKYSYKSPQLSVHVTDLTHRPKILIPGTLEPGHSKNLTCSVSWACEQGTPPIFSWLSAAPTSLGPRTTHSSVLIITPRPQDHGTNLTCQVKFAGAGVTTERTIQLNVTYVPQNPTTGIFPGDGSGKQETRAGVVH
# Tests used:
# [1] = target: T1, Human CD5 Protein, HisTag (AcroBiosystems, Cat #CD5-H52H5) (human, UniProt P06127 25-372); assay: flow cytometry; CAR-T cells stained with soluble human CD5-His and His-APC antibody
# T1 construct: Bought staining reagent, detected with His-APC antibody; also called CD5 antigen; APC labeled CD5 antigen; not shown: His tag
# T1 sequence (looked up): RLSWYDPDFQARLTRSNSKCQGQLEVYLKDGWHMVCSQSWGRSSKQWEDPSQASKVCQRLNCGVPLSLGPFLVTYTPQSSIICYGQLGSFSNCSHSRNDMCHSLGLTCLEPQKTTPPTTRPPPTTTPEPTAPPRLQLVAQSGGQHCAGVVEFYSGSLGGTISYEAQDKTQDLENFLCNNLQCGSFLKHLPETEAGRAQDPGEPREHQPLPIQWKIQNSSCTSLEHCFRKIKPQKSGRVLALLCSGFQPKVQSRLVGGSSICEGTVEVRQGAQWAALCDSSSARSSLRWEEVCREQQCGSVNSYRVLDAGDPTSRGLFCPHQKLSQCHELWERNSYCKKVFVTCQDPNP
# Experimental: (§1) CD3 and CD5 are stained with a CD3-FITC antibody (BD Biosciences, #555339) and a CD5-APC antibody (BD Biosciences, #555355) for 30 minutes at R.T. in the dark. CAR5 surface expression is detected by staining with Human CD5 Protein, HisTag (AcroBiosystems, Cat #CD5-H52H5) for 1 hour at R.T., washed and then incubated with His-APC antibody (R&D Systems, IC050A) for 30 minutes at R.T. in the dark. CAR33 expression is stained with CD33 human protein-PE (Sino Biological, 12238-HCCH_P) for 1 hour at R.T. All the staining is performed at 1:10 dilutions. DAPI (Thermo Scientific, Cat #BV-421, 1:5000) is used to stain dead cells before running by the Attune NxT Flow Cytometer (Thermo Fisher Scientific). Data is further analyzed by either using Attune NxT flow software or FlowJo software.
# [2] = target: T2, CD5 on human T cells (autologous and allogeneic Pan-T cells) and on the T-ALL cell line CCRF-CEM (human, UniProt P06127 25-495); assay: cell-based or functional assay
# T2 sequence (looked up): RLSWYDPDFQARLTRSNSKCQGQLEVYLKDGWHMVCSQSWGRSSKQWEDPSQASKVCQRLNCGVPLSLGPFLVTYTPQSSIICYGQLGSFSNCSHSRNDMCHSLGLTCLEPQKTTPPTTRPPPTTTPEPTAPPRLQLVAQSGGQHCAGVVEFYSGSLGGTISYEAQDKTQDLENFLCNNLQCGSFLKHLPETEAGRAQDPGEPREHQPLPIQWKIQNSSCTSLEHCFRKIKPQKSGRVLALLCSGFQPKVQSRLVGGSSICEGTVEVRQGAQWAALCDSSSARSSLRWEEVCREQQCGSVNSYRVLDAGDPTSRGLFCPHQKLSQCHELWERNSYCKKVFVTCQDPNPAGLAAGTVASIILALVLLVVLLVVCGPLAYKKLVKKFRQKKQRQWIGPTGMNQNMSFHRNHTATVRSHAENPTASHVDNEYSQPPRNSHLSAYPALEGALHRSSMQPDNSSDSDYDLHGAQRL
# [3] = target: T3, CD33 human protein-PE (Sino Biological, 12238-HCCH_P) (human, UniProt P20138 18-259, PE label); assay: flow cytometry; CAR-T cells stained with CD33 human protein-PE
# T3 construct: Bought staining reagent; also called CD33 antigen
# Experimental: as §1
Binder,% of T cells stained with CD5 antigen (CAR5 expression) [1] [%],elimination of CCRF-CEM cells after 18 hours (luciferase-based killing assay) [2] [%],binding result [3]
"CD5 CAR CAR5-5, construct S009 (other, Chimeric antigen receptor on T cells) DIQMTQSPSSLSASVGDRVTITCRASQDINSYLSWFQQKPGKAPKTLIYRANRLESGVPSRFSGSGSGTDYTLTISSLQYEDFGIYYCQQYDESPWTFGGGTKLEIKGGGGSGGGGSGGGGSEIQLVQSGGGLVKPGGSVRISCAASGYTFTNYGMNWVRQAPGKGLEWMGWINTHTGEPTYADSFKGRFTFSLDDSKNTAYLQINSLRAEDTAVYFCTRRGYDWYFDVWGQGTTVTVSSASTTTPAPRPPTPAPTIASQPLSLRPEACRPAAGGAVHTRGLDFACDIYIWAPLAGTCGVLLLSLVITLYCKRGRKKLLYIFKQPFMRPVQTTQEEDGCSCRFPEEEEGGCELRVKFSRSADAPAYKQGQNQLYNELNLGRREEYDVLDKRRGRDPEMGGKPRRKNPQEGLYNELQKDKMAEAYSEIGMKGERRRGKGHDGLYQGLSTATKDTYDALHMQALPPR",> 80,~100,–
"CD5 CAR CAR5-1, construct S005 (other, Chimeric antigen receptor (scFv ectodomain) on T cells) DIKMTQSPSSMYASLGERVTITCKASQDINSYLSWFHHKPGKSPKTLIYRANRLVDGVPSRFSGSGSGQDYSLTISSLDYEDMGIYYCQQYDESPWTFGGGTKLEMKGGGGSGGGGSGGGGSNIQLVQSGPELKKPGETVKISCKASGYTFTNYGMNWVKQAPGKGLRWMGWINTHTGEPTYADDFKGRFAFSLETSASTAYLQINNLKNEDTATYFCTRRGYDWYFDVWGAGTTVTVSSASTTTPAPRPPTPAPTIASQPLSLRPEACRPAAGGAVHTRGLDFACDIYIWAPLAGTCGVLLLSLVITLYCKRGRKKLLYIFKQPFMRPVQTTQEEDGCSCRFPEEEEGGCELRVKFSRSADAPAYKQGQNQLYNELNLGRREEYDVLDKRRGRDPEMGGKPRRKNPQEGLYNELQKDKMAEAYSEIGMKGERRRGKGHDGLYQGLSTATKDTYDALHMQALPPR",> 80,~100,–
"CD33 CAR CAR33-3, construct S013 (other, Chimeric antigen receptor on T cells) EIVLTQSPGSLAVSPGERVTMSCKSSQSVFFSSSQKNYLAWYQQIPGQSPRLLIYWASTRESGVPDRFTGSGSGTDFTLTISSVQPEDLAIYYCHQYLSSRTFGQGTKLEIKRGGGGSGGGGSGGGGSQVQLQQPGAEVVKPGASVKMSCKASGYTFTSYYIHWIKQTPGQGLEWVGVIYPGNDDISYNQKFQGKATLTADKSSTTAYMQLSSLTSEDSAVYYCAREVRLRYFDVWGQGTTVTVSSASTTTPAPRPPTPAPTIASQPLSLRPEACRPAAGGAVHTRGLDFACDIYIWAPLAGTCGVLLLSLVITLYCKRGRKKLLYIFKQPFMRPVQTTQEEDGCSCRFPEEEEGGCELRVKFSRSADAPAYKQGQNQLYNELNLGRREEYDVLDKRRGRDPEMGGKPRRKNPQEGLYNELQKDKMAEAYSEIGMKGERRRGKGHDGLYQGLSTATKDTYDALHMQALPPR",–,–,binds
"CD33 CAR CAR33-5, construct S015 (other, Chimeric antigen receptor on T cells) NIMLTQSPSSLAVSAGEKVTMSCKSSQSVFFSSSQKNYLAWYQQIPGQSPKLLIYWASTRESGVPDRFTGSGSGTDFTLTISSVQSEDLAIYYCHQYLSSRTFGGGTKLEIKRGGGGSGGGGSGGGGSQVQLQQPGAEVVKPGASVKMSCKASGYTFTSYYIHWIKQTPGQGLEWVGVIYPGNDDISYNQKFKGKATLTADKSSTTAYMQLSSLTSEDSAVYYCAREVRLRYFDVWGAGTTVTVSSASTTTPAPRPPTPAPTIASQPLSLRPEACRPAAGGAVHTRGLDFACDIYIWAPLAGTCGVLLLSLVITLYCKRGRKKLLYIFKQPFMRPVQTTQEEDGCSCRFPEEEEGGCELRVKFSRSADAPAYKQGQNQLYNELNLGRREEYDVLDKRRGRDPEMGGKPRRKNPQEGLYNELQKDKMAEAYSEIGMKGERRRGKGHDGLYQGLSTATKDTYDALHMQALPPR",–,–,binds
